These results are taken from publication doi:10.1101/2024.07.09.602823.

These are yes or no findings as the source states them, for the method shown. In cells and extracts the contact can be indirect. A result given as binding can be weak or reduced; the word gives no strength.

The target of the assay is T1, Septin6 (human (endogenous in MDA-MB-231)) (UniProt Q14141).
T1 sequence: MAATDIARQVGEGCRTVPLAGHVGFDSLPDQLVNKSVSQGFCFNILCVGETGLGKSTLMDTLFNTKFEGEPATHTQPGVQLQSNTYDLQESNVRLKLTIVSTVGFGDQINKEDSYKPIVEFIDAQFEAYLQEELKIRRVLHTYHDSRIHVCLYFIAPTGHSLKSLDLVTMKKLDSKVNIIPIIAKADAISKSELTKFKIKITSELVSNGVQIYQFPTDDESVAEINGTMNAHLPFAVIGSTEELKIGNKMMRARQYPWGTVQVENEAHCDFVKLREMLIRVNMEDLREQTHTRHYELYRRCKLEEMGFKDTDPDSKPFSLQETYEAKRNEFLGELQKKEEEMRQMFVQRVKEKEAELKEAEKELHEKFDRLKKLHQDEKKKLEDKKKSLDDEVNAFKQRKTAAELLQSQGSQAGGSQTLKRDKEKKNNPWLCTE
Nature of the assay: co-IP.

On to ΔSH3-AB-Flag (domain or fragment), for which the binding result is recorded as “binds”.
